For 2 compounds, IC50 results are on record in patent US20240150365A1 (Hotspot Therapeutics, Inc., priority 2022, published 2024).

By UniProt entry, the sequences of proteins in these tests, tags left out.
UniProt Q9UDY8, whole entry: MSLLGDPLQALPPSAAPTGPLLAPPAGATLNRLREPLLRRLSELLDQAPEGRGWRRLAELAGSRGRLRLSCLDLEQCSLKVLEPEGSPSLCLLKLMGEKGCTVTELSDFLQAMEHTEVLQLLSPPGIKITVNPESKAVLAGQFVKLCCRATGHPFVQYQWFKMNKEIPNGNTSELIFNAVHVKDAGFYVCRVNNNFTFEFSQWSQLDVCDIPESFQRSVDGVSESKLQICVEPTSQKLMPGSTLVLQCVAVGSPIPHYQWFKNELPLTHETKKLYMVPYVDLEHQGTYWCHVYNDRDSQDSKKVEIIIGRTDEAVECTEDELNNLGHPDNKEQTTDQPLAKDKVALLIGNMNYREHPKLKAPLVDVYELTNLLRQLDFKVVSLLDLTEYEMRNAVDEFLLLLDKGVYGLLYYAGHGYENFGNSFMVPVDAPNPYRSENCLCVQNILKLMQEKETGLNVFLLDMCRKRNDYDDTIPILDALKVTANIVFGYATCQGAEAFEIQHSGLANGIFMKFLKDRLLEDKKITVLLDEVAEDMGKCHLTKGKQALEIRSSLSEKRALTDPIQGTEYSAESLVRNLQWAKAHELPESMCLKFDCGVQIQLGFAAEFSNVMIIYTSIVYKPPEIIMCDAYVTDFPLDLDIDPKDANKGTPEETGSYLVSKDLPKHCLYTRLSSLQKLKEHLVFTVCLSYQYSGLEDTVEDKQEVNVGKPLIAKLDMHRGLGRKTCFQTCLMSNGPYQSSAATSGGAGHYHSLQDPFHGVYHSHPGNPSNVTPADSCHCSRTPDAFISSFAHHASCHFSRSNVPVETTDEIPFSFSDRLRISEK

One test has as its target MALT1 (Homo sapiens, UniProt Q9UDY8). The test can be described thus: MALT-1 Fluorogenic Peptide Cleavage Assay (MALT1 inhibition assay). The class given is biochemical. Conditions: read-out: MALT1 Inhibition IC50; Avi-tagged FL MALT-1, Ac-LRSR-AMC peptide substrate, 30 min pre-incubation, 90 min reaction. As to the method: Inhibition of MALT1 activity by the presence of small molecules was evaluated using MALT-1 Fluorogenic Peptide Cleavage Assay. The assay utilizes a quenched AMC-labelled peptide that contains the MALT-1 recognition sequence and cleavage site (LRSR). MALT-1 mediated cleavage of the peptide relieves the quenching and leads to an increase in fluorescence at excitation (342 nm) and emission (441 nm). The following reagents were obtained commercially and used to prepare standard reagent formulations as further described below: […] The standard reagent formulations used in this assay were prepared and stored as follows. A 1.1 M solution of sodium citrate (161.3 g, 500 mL) was prepared and stored at room temperature. A 10% (w/v) CHAPS solution (2.0 g, 20 mL) was prepared and stored at 4° C. A 500 mM HEPES solution having pH of 6.89 was prepared from 200 mL of a 1 M HEPES solution having a pH of 7.5 using concentrated hydrochloric acid and brought to a final volume of 400 mL with […]® H2O. […] The assay-ready plates were equilibrated to room temperature. […] Fluorescence intensity was determined using a CLARIOstar microplate reader (BMG LABTECH) using the optimised AMC mode. Before taking readings, a 70% gain was applied on the neutral control well. […] Compounds in which an IC50 was not measured are designated as “N/A”.

For the next test, the system named is NF-kB. Description: NF-kB reporter assay in Jurkat cells stimulated with aCD3/aCD28/PMA. It counts as cell-based. Conditions: read-out: NF-kB Reporter Assay IC50, 1 hr compound incubation, aCD3/aCD28/PMA stimulation 4 hr, One-Glo readout.

The structures given here were assigned with low confidence; some may be wrong.

Regarding `Cc1nc(-n2cc(C(F)(F)F)cn2)ccc1S(=O)(=O)Nc1cccc2cnn(C)c12`, the IC50 is 400 to 1000 nM on MALT1 and < 400 nM with NF-kB.

As to `Cc1cc(-n2cc(C(F)(F)F)cn2)ncc1S(=O)(=O)Nc1cccc2cnn(C)c12`, the values for the IC50 on MALT1 and in the test on NF-kB were > 2500 nM and < 400 nM, respectively.
